This assay has as its target T1, cytoplasmic domain of UNC-40 fused to GST (C. elegans) (UniProt G5EF96).
T1 sequence: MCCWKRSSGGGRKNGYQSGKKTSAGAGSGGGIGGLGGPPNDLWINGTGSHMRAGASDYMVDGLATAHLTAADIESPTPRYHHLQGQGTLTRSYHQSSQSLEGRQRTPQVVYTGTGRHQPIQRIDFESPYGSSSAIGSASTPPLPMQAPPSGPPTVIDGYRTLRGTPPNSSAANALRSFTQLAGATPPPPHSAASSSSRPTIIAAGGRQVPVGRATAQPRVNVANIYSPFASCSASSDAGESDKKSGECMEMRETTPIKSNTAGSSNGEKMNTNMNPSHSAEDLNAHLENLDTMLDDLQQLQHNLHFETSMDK
Briefly: pull-down; GST fusion coupled to Glutathione-Sepharose; biotin-labelled in vitro translated protein; 16 hours at 4°C in PBS with 0.1% Triton X-100, 1% BSA and protease inhibitors; 3 washes; detected with Strepavidin-Alkaline Phosphatase; only the target purified.

The chains behind the UniProt entries cited, without tags or fusion partners.
UniProt P08659: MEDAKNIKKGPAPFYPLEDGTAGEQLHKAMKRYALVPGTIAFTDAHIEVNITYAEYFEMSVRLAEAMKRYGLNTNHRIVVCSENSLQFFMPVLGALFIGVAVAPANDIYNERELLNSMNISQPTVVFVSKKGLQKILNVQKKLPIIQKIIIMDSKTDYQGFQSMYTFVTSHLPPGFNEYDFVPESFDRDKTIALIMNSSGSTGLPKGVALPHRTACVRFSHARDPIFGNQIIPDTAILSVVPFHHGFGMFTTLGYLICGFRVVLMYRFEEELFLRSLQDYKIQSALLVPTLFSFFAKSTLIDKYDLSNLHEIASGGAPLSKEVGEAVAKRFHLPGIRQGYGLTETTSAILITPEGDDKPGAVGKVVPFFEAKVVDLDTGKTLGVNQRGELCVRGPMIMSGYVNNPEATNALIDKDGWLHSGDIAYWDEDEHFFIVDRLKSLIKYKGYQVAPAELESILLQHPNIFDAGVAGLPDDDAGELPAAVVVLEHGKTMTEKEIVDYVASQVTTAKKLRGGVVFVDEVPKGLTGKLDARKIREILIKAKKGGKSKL

Results are given in words; binding and its absence hold for the method and conditions named. In cells and extracts the contact can be indirect. Sequences can lack the tags named with a protein.

luciferase (from UniProt P08659 1-550): the binding result was “no binding”.

The values above are taken from article PMC4398414.
